Test results as given in patent publication US20110183978A1, “Phenylpyri(mi)dinylazoles” (Bayer CropScience AG, priority 2009, published 2011).
“And” between values parts separate entries of the source, which are not always exact repeats. Equal entries are not always repeated. The name of at least one read-out is uncertain.

What was measured:
Sphaerotheca fuliginea = test: Example L: in vivo test on Sphaerotheca fuliginea (powdery mildew on cucumber/protective); conditions: 500 ppm; cucumber, protective; assessment 7 days after inoculation
Description: Solvent: 49 parts by weight N,N-dimethylformamide Emulsifier: 1 part by weight alkylaryl polyglycol ethers For the preparation of a suitable active substance preparation, 1 part by weight of active substance is mixed with the stated quantities of solvent and emulsifier and the concentrate is diluted to the desired concentration with water. For the testing for protective activity, young cucumber plants are sprayed with the active substance preparation at the stated application dosage. One day after the treatment, the plants are inoculated with a spore suspension of Sphaerotheca fuliginea. Next, the plants are placed in a greenhouse at 70% relative atmospheric humidity and a temperature of 23° C. 7 days after the inoculation, the assessment takes place.

Botrytis cinerea = test: Example P: in vivo test on Botrytis cinerea (gray mould on bean/protective); conditions: bean, protective, 250 ppm active substance, assessed 2 days after inoculation
Description: Emulsifier: 1 part by weight alkylaryl polyglycol ethers For the preparation of a suitable active substance preparation, 1 part by weight of active substance is mixed with the stated quantities of solvent and emulsifier and the concentrate is diluted to the desired concentration with water. For the testing for protective activity, young plants are sprayed with the active substance preparation at the stated application dosage. After drying of the spray coating, 2 small pieces of agar with Botrytis cinerea growing on them are laid on every leaf. […] 2 days after the inoculation, the size of the infection blotches on the leaves is assessed.

SMILES | % Wirkungsgrad (Sphaerotheca fuliginea) | % Wirkungsgrad (activity level) (Botrytis cinerea) [%]
CCC(=O)Nc1cc(-c2cn(C3CC3)nc2-c2ccc(F)cc2)ccn1 [Compound 320] | 89% and 95% | –
CC(C)C(=O)Nc1cc(-c2cn(CC3CC3)nc2-c2ccc(F)cc2)ccn1 [Compound 225] | – | 93
